Hit rate of the full screen: of about 52,000 sequences, about 210 (0.4%) were called active.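 The calls were made as follows: active = gene whose silencing raises cell survival under the drug, median off-target-corrected z-score across its silencing RNAs 2 or more; inactive = the rest.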 The list shows a part of the results.
experiment: Resistance to Poly (ADP-Ribose) Polymerase inhibitor: Gene Identification via Genome-wide siRNA Screen; conditions: mouse BRCA2 R2336H ES cells, olaparib, CellTiter-Glo viability; hits give high values
Outline: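 Mouse BRCA2 R2336H ES cells were reverse-transfected with siRNA (20 nM final), treated at 48 h with 500 nM olaparib, and read by CellTiter-Glo after 72 h. Scores: MAD-based z per siRNA, median per gene, seed off-target correction.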

Row | Sequence | z-score
1 | GCCAAAAGUCGAGCACCUCTT against Lrrc5 | inactive: -0.0025
2 | CGCUCUCAAGGUAUAGUCCTT against Cyp2d22 | inactive: -0.0194
3 | GGAGUUUUAACAACAGUAGTT against AI586120 | inactive: -2.34
4 | GGUGGCUACCUGGUGAUCUTT against 8430417A20Rik | inactive: 0.676
5 | CGUUUGACACUUUUGCCUUTT against Mid1 | inactive: -1.4
6 | GGACACAGUAGAGCGGAUUTT against 4631403P03Rik | inactive: 3.03
7 | GGGUGGAAGAGUUCAGUUUTT against Zadh1 | inactive: 0.507
8 | GCUGAAUACAACGUGAGAUTT against Tdh | inactive: -0.744
9 | GGGUUGUUGAGACUUCCACTT against Hmbs | inactive: 0.438
10 | GCCCAUAGGUGCAGAUUCCTT against Fhl4 | inactive: 1.03
11 | GGACAAGAACUACAUUGAGTT against Eefsec | inactive: 2.12
12 | GGUAUCAUUUACUUUGAACTT against Gtf2f2 | inactive: 0.527
13 | GGAGUUCUUUUUUUCUGUGTT against Pkd1 | inactive: -0.637
14 | GGACCAGAAGGAGAAGAGUTT against Prg2 | inactive: -2.64
15 | GAAUGGAAGACGAAAUUUGTT against Ctla2a | inactive: 0.826
16 | GGCCUUACCAAAUGGAAGUTT against Ifih1 | inactive: 0.142
17 | CCUACCUUCAUUCGCUUCGTT against Cpz | inactive: 1.77
18 | CGAUGAAGCCAAUCACUUATT against Cct5 | inactive: -2.57
19 | GGGAACCCAUUUUAGAAUUTT against Repin1 | inactive: 0.468
20 | GGUCAACCCAGCCUAUUCATT against 0610039G24Rik | inactive: -1.21
21 | GGAACUUUAUGUGGAAAGATT against V1rf2 | inactive: -0.552
22 | GGGAACCAGUACAAUUACATT against 2410004H05Rik | inactive: -2.36
23 | GGCUGAUGGAAAUCCUUAATT against Gm672 | inactive: 0.184
24 | GGCUUUGAUGUCAGCACUGTT against AW552001 | inactive: 0.904
25 | GGAGCUAGCUAGAACAAGUTT against Slmap | inactive: -0.506
26 | GGGCUUUCUGCUGAAGAGATT against Leng9 | inactive: 1.11

Looked up one by one from above:
Row | Sequence | z-score
10 | GCCCAUAGGUGCAGAUUCCTT against Fhl4 | inactive: 1.03
22 | GGGAACCAGUACAAUUACATT against 2410004H05Rik | inactive: -2.36

Next entries:

Row | Sequence | z-score
27 | GGGUCUCGAAGAGAUCAAUTT against B130016O10Rik | inactive: 0.378
28 | CCGAGUGGUUAGCUACCAGTT against Ccl24 | inactive: 0.385
29 | GAAAAGAGGACAGCUUGACTT against Serf1 | inactive: -0.267
30 | GCCAAUGGUGUUAACAGCATT against Slc24a4 | inactive: 0.272
31 | CGUUGUGUUCUGAACAACCTT against A930025D01Rik | inactive: 0.308
32 | GCACAGCUAACCCUGUUAGTT against Hbld2 | inactive: -1.44
33 | GGGUAGGGCAGUCUACUUATT against F2r | inactive: -0.23
34 | CCUAUCCUAGCACACCAGATT against Fosl1 | inactive: -0.224
35 | GGUUGUGUGCAGGAAUGGGTT against Nxn | inactive: -1.14
36 | GGAAGAAGCUCUAUGCUGATT against Fbxo9 | inactive: 0.0269
37 | GGUGGUUUCACUCCAGAUGTT against Nnp1 | inactive: -2.9
38 | UUUAGCCUUGCAUACGGACTT against Sfrs8 | inactive: -2.15
39 | GGGAAGUUUCAGGAAGAAGTT against Pbx4 | inactive: 0.67
40 | GCAGGUACUGCGCUAUUAUTT against 1110012E06Rik | inactive: -1.93
41 | GGUAAUGUCUUUGUACUAATT against Tnfaip9 | inactive: -1.04
42 | GCCCAGUCAAGACUAUUCGTT against Csnk2b | inactive: 0.844
43 | CCGAUUUGGGUCAAUUUUATT against Gm608 | inactive: 2.03
44 | GGGAGAAAUGCCUUUAGUCTT against 4832406C22 | inactive: 1.62
45 | GGCCUGGAUGAAUGAAAAGTT against 2810037C03Rik | inactive: -1.88
46 | GCAAAUACGAAAAUGAGUGTT against Bfsp1 | inactive: 0.134
47 | GGACCGAAAGCAUUCGAUUTT against 1110049B09Rik | inactive: 2.48
48 | GGAACAUUGAAAGGAUUAATT against Cspg6 | inactive: -2.83
49 | CCCUCUUUAAACAGAUUGGTT against Fmo4 | inactive: -0.956
50 | UAGCAGUCUACAGGAAUGGTT against Olfr1411 | inactive: -1.16
51 | UUGUGAGUGCAUGUGAAAUTT against Epn1 | inactive: -1.64
52 | GGCAAUUUAUAAUGUCUCUTT against Heph | inactive: 0.426

Row | Sequence | z-score
53 | GGAGGCUGAGUAGGUAUGATT against Olfr137 | inactive: -1.25
54 | GCCCACUAGUCAAAAGCUUTT against Kera | inactive: 0.836
55 | GGAUAACUCACAAGAGUCUTT against Zdhhc16 | inactive: 0.446
56 | CCGCAUCCUAAGUUUUAAATT against B130050K08 | inactive: -0.305
57 | GGAUUGCCUGCUCACUAACTT against MGC47262 | inactive: -0.74
58 | GGUCCUGAACCAGUUAGAGTT against Myohd1 | inactive: -0.159
59 | GGGUUCGUUUCACAGAUCCTT against Chrd | inactive: -2.06
60 | GGACAUCGGAUUCUACACCTT against Psg19 | inactive: 1.31
61 | GGCUUCUUUCUCGGCAAGATT against 1810015A11Rik | inactive: -2.75
62 | GGACAGCUCUCAUCUGAUGTT against D13Wsu64e | inactive: -0.724
63 | GGUGUAGACUAAGACAAUATT against D8Ertd812e | inactive: -0.151
64 | GGUUGUAGGUUAUAGCUGUTT against 2310043K02Rik | inactive: 1.47
65 | CCCACUUUAUAGGACAUAUTT against Zhx3 | inactive: -0.828
66 | GGAGUGUAUGAUGCUGAUGTT against S100a9 | inactive: 0.545
67 | GGAGACAGAUUGCUACAGATT against Itga7 | inactive: 0.752
68 | GGCAACUGGAGAUGUGUGUTT against BC013667 | inactive: -0.951
69 | GGAGAAAAAUGUUGAUGAUTT against 4921510H08Rik | inactive: -0.337
70 | GCUGAGACCCAGAUGCAAUTT against Mal | inactive: 0.582
71 | GCACCUCGUUCACCAAUAUTT against Hs2st1 | inactive: 0.0524
72 | GGUGUUUUGCUGUUAAUAATT against Foxd4 | inactive: 0.325
73 | GGAAGAUAAAUCACAAUCATT against Cdc37l1 | inactive: -0.385
74 | CGAGGAUUUCUAUCCUGACTT against Ascc1 | inactive: -0.358
75 | GGACCAGUAUCAGAACAUCTT against Xrcc5 | inactive: 1.39
76 | GGAAACAGUGAAAUGAGUATT against 2310003P10Rik | inactive: -0.0342
77 | GGCUAUGCCAUGAACUUCUTT against Inhbc | inactive: 0.816
78 | GGGUACAGACGAUGUUUGATT against Cmya4 | inactive: 0.737

Row | Sequence | z-score
79 | GGUCAACCAUUCCUCUUGATT against A430105I19Rik | inactive: -2.08
80 | CCUAUAAAGCAGCAACUGCTT against 9130213B05Rik | inactive: -0.9
81 | UCUUUGUGAUUUCGAAGCCTT against BC019537 | inactive: -0.616
82 | GGUUCUAGGACCUAUUUUGTT against 3110002L15Rik | inactive: -0.914
83 | GGGAACUCGAACAAGAAUUTT against Six1 | inactive: 0.492
84 | CGCAGGUAUACCUUAAAGCTT against 1810007M14Rik | inactive: -1.25
85 | GCUUAAAGUACGAUCAGCUTT against Wdr3 | inactive: -1.69
86 | CGAGUGACAAAUGAAAUCGTT against Ercc4 | inactive: 1.42
87 | GGAAGCUAUAUAUCAAGAATT against Tcea1 | inactive: -0.23
88 | GGAAUUGAUUACUAUUACCTT against AI314180 | inactive: -0.952
89 | GCGCGAUUCAGAGGUUUCATT against A430091O22Rik | inactive: -0.568
90 | CCUGGGACCAACACAAAAUTT against 1700025E21Rik | inactive: 1.94
91 | GGACGUAGUACCCAUGAAUTT against Adora2a | inactive: 1.58
92 | GGAAGUGCUUUGAAGAAGATT against D330017J20Rik | inactive: -0.955
93 | GCAAUGAACAAAUUUGGUGTT against Narg1 | inactive: -0.186
94 | CCUACAACGAACGGGAGAATT against Dpm1 | inactive: -1.42
95 | CGGUCCCAAACGGUCAAGUTT against AI851790 | inactive: -0.429
96 | CUCCAUAAAAGGAAGUCUATT against Olfr1202 | inactive: -1.2
97 | GGAUAUGUUUCUAGUAUCATT against Cd226 | inactive: -1.79
98 | GGAUCUGAGAAAUGAAAUCTT against Slc3a1 | inactive: 0.0826
99 | GGGCAAAAGCUAAUGACUCTT against 4933409K07Rik | inactive: -0.856
100 | GGCGUGGAUGACCUAGACUTT against Actr3 | inactive: -1.2
101 | GGAUCUCAUUCACAGAUUATT against Rasgrp3 | inactive: -0.961
102 | GGAGAAACUGGCUUUCUCUTT against Zp3 | inactive: 0.196
103 | GGCAGAUGCAAUCCAUUGGTT against Tas2r104 | inactive: -1.67
104 | GGCAUCUUUCACAGUUUUGTT against Hspa12b | inactive: 0.94

Exported with each value named: entries from further up
GGGAACCAGUACAAUUACATT against 2410004H05Rik
  z-score: inactive: -2.36
GGGAGAAAUGCCUUUAGUCTT against 4832406C22
  z-score: inactive: 1.62
GGACAUCGGAUUCUACACCTT against Psg19
  z-score: inactive: 1.31
GGUGUAGACUAAGACAAUATT against D8Ertd812e
  z-score: inactive: -0.151

From PubChem BioAssay AID1347423 (Functional Genomics Laboratory (NCATS/FGL), 2020)
